Laboratory results taken from PubChem BioAssay AID2588 (National Center for Advancing Translational Sciences (NCATS), 2010).
The shares of active, inactive and inconclusive entries below differ from those in the screen. Potencies of inconclusive entries are doubtful fits and often do not repeat. Activity calls are given as the source filed them. Calls come from the whole dose curve; as a rule, active = well fitted inhibition curve with a large enough effect; inconclusive = small, poorly fitted or top-dose-only effect, or effect the other way; inactive = flat fitted curve, though single readings scatter.

Protein sequences, listed by entry. Tags and fused reporters are not part of them. Lines headed by an entry give the natural chain unless they say otherwise; changes in a name come on top.
UniProt P04062: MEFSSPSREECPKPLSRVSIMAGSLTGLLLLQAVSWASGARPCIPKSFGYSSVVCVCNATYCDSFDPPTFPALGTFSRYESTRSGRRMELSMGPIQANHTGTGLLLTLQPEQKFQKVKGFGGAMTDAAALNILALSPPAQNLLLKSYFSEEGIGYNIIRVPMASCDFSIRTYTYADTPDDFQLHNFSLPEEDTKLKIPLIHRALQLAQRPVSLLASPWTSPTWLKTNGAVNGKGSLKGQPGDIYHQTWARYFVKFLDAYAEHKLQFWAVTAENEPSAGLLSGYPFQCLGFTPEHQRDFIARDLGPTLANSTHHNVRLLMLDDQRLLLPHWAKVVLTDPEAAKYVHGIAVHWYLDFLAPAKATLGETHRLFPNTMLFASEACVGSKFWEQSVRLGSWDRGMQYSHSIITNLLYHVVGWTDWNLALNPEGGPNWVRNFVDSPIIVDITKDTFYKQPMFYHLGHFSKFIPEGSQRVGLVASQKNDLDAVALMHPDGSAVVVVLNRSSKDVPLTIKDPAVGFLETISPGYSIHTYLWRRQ

molecular target: Lysosomal acid glucosylceramidase (Homo sapiens) (UniProt P04062); assay: qHTS Assay for Inhibitors and Activators of N370S glucocerebrosidase as a Potential Chaperone Treatment of Gaucher Disease: Activity in Non-Mutant Spleen Homogenate Using a Red Fluorescent Substrate; conditions: red fluorogenic substrate GCase activity; series mostly up to 50.2 µM; activity change, negative = inhibition: at the top concentration
Description: NIH Chemical Genomics Center [NCGC]
NIH Molecular Libraries Probe Production Centers Network [MLPCN]
Assay Submitter (PI): Wei Zheng
Glucocerebrosidase (GC) catalyzes the hydrolysis of beta-glucocerebroside to glucose and ceramide in lysosomes. Mutations in the glucocerebrosidase gene result in Gaucher disease, an autosomal recessive lysosomal storage disorder. Many of the mutations encountered in patients with Gaucher disease are missense alterations that may cause misfolding, decreased stability and/or mistrafficking of this lysosomal protein. […] These inhibitors include iminosugar analogs and three non-iminosugar inhibitors identified from a previous HTS of 62,000 compounds with the wild type recombinant enzyme. However, the enhancement of enzyme activity by the chaperone action of an enzyme inhibitor must be balanced against the direct inhibition of the enzyme. An enzyme activator could also function as a chaperone by binding to the enzyme and helping to correct its misfolding and mistrafficking. While activators for GC have not yet been identified, they may have better therapeutic potential than inhibitors. Therefore the discovery and development of chemical activators may provide a new strategy for the chaperone therapy.
We have optimized a new assay using N370S mutant GC derived from the spleen of a Gaucher patient. […] In addition, the MLPCN compound library has expanded, which increases the chance of finding new and better probes.
This confirmation assay tests for compound activity in spleen homogenate containing wildtype enzyme using an alternate resorufin-based substrate.
NCGC Assay Protocol Summary:
This is a fluorogenic enzyme assay with resorufin-beta-D-glucopyranoside as the substrate and wildtype glucocerebrosidase from human spleen homogenate as the enzyme preparation. Upon the hydrolysis of this fluorogenic substrate, the resulting product, […] which can be detected by a standard fluorescence plate reader. Data were normalized to the controls for basal activity (without enzyme) and 100% activity (with enzyme). The AC50 values were determined from concentration-response data modeled with the standard Hill equation.
Assay buffer: 50 mM citric acid (titrated with potassium phosphate to pH 5.0), 100 mM potassium chloride, 10 mM sodium chloride, 1 mM magnesium chloride, 0.01% Tween-20.
1536-well assay protocol:
(1) Add 2 ul/well of spleen homogenate (27 ug final)
(2) Add 23 nL compounds in DMSO solution. The final titration was 0.5 nM to 58 uM.
(3) Add 2 ul of substrate (1 mM final)
(4) Incubate at 37C for 40 min.
(5) Add 2 ul stop solution (1M NaOH and 1M Glycine mixture, pH 10)
(6) Detect the assay plate in a ViewLux plate reader (PerkinElmer) with Ex=365 nm and Em=440nm.
Keywords: Glucocerebrosidase, beta-glucosidase, Gaucher Disease, pharmacological chaperone, chaperone therapy, high throughput screening, glucocerebrosidase inhibitor, MLSMR, MLSCN, NIH Roadmap, qHTS and NCGC

SMILES	Potency	activity change, negative = inhibition
CCCC1CCC(C(=O)Nc2ccc3nc(N4CCOCC4)cc(C)c3c2)CC1 (stereo not given)	active: 0.447 µM	
O=S(=O)(c1ccc2ccccc2c1)N1CCN(c2nc(-c3ccccc3)nc3ccccc23)CC1	inconclusive: 2.51 µM [inhibitor, full curve]	
O=S(=O)(c1ccc(Br)cc1)N1CCN(c2nc(-c3cccs3)nc3ccccc23)CC1	active: 0.794 µM	
Cc1ccc(S(=O)(=O)Nc2ccc(C(=O)Nc3cc(C)on3)cc2)cc1	inconclusive: 14.1 µM [inhibitor, full curve, poor fit]	
CC(=O)Nc1ccc(NC(=O)COc2ccccc2C(=O)Nc2cccc(Cl)c2Cl)cc1		inactive: -15.2%
O=C(COc1ccccc1[N+](=O)[O-])Nc1ccc(Br)cc1		inactive: 18.9%
O=S(=O)(c1ccc(Br)cc1)N1CCN(c2nc(-c3ccccc3)nc3ccccc23)CC1	inconclusive: 7.08 µM [inhibitor, full curve]	
COc1ccccc1C(=O)COC(=O)c1ccccc1OCC(=O)Nc1ccc(SC(F)F)cc1		inactive: 3.84%
Cc1cc(N2CCOCC2)nc2ccc(NC(=O)C3CC3)cc12	inconclusive: 12.6 µM [inhibitor, partial curve, poor fit]	
CC(C)C(C)NC(=O)CSc1nc2scc(-c3ccco3)c2c(=O)n1-c1ccccc1 (stereo not given)	inconclusive: 31.6 µM [inhibitor, partial curve, poor fit]	
O=S(=O)(c1ccccc1Cl)N1CCN(c2nc(-c3ccccc3)nc3ccccc23)CC1	inconclusive: 7.94 µM [inhibitor, full curve]	
Cc1cc(C)cc(N(CC(=O)NC2CCCCCC2)S(=O)(=O)c2c(C)[nH]c(=O)[nH]c2=O)c1	active: 0.631 µM	
O=S(=O)(c1cccc(C(F)(F)F)c1)N1CCN(c2nc(-c3cccs3)nc3ccccc23)CC1	active: 0.794 µM	
Cc1cccc(/C=N/NC(=O)NC23CC4CC(CC(C4)C2)C3)n1	inconclusive: 31.6 µM [activator, partial curve, poor fit]	
Cc1ccc(-c2nc(N3CCN(S(=O)(=O)c4ccc(F)cc4)CC3)c3ccc(Cl)cc3n2)cc1		inactive: -14.4%
COc1ccccc1NC(=O)COc1ccccc1C(=O)Nc1ccccc1		inactive: 17%
CC1CC(C)CN(C(=O)CSc2nc(Cc3cccs3)nc3ccccc23)C1 (stereo not given)	inconclusive: 10 µM [activator, full curve, poor fit]	
CCC(=O)OCCNc1nc(-c2ccccc2)nc2ccccc12	inconclusive: 14.1 µM [inhibitor, partial curve, poor fit]	
COc1cc2c(cc1NC(=O)COC(=O)[C@@H](NC(=O)c1ccccc1)C(C)C)oc1ccccc12		inactive: 21.1%
CC1(C)CC(=O)C2=C(C1)c1c(ccc3ccccc13)NC2c1ccc(Br)o1 (stereo not given)		inactive: -13.8%

Of the compounds above, 4 have bromine.
SMILES	Potency	activity change, negative = inhibition
O=S(=O)(c1ccc(Br)cc1)N1CCN(c2nc(-c3cccs3)nc3ccccc23)CC1	active: 0.794 µM	
O=C(COc1ccccc1[N+](=O)[O-])Nc1ccc(Br)cc1		inactive: 18.9%
O=S(=O)(c1ccc(Br)cc1)N1CCN(c2nc(-c3ccccc3)nc3ccccc23)CC1	inconclusive: 7.08 µM [inhibitor, full curve]	
CC1(C)CC(=O)C2=C(C1)c1c(ccc3ccccc13)NC2c1ccc(Br)o1 (stereo not given)		inactive: -13.8%

Remaining list, next part

SMILES	Potency	activity change, negative = inhibition
CCOc1ccc(S(=O)(=O)N2CCN(c3nc(-c4ccccc4)nc4ccccc34)CC2)cc1OCC	inconclusive: 3.98 µM [inhibitor, full curve]	
COc1cc(OC)cc(C(=O)N[C@H](C(=O)OCC(=O)Nc2cccc(F)c2)C(C)C)c1		inactive: -8.09%
COc1ccc(-c2nc(N3CCN(S(=O)(=O)c4ccc(C)cc4)CC3)c3ccccc3n2)cc1	inconclusive: 5.01 µM [inhibitor, partial curve, poor fit]	
COc1cccc(NC(=S)N(CCCN2CCOCC2)Cc2cn(C)c3ccccc23)c1	inconclusive: 3.16 µM [inhibitor, full curve, poor fit]	
O=S(=O)(c1cccc(Cl)c1)N1CCN(c2nc(-c3ccccc3)nc3ccccc23)CC1	inconclusive: 5.62 µM [inhibitor, full curve]	
CN(C)c1ccc(C(=C2C=CC(=[N+](C)C)C=C2)c2ccc(N(C)C)cc2)cc1	inconclusive: 15.8 µM [inhibitor, partial curve, poor fit]	
N#Cc1ccccc1S(=O)(=O)N1CCN(c2nc(-c3ccccc3)nc3ccccc23)CC1	inconclusive: 11.2 µM [inhibitor, full curve, poor fit]	
O=[N+]([O-])c1cccc(S(=O)(=O)N2CCN(c3nc(-c4ccccc4)nc4ccccc34)CC2)c1	inconclusive: 2.24 µM [inhibitor, full curve]	
FC(F)(F)c1ccccc1-c1nccc(NCc2cccs2)n1	inconclusive: 12.6 µM [inhibitor, partial curve, poor fit]	
O=S(=O)(c1ccccc1C(F)(F)F)N1CCN(c2nc(-c3cccs3)nc3ccccc23)CC1	active: 0.224 µM	
CC(=O)c1ccc(S(=O)(=O)N2CCN(c3nc(-c4ccccc4)nc4ccccc34)CC2)cc1	inconclusive: 3.16 µM [inhibitor, full curve]	
c1ccc(CNc2nc(-c3cccs3)nc3ccccc23)cc1	inconclusive: 10 µM [inhibitor, partial curve, poor fit]	
O=S(=O)(c1ccc(F)cc1)N1CCN(c2nc(-c3ccccc3)nc3ccccc23)CC1	inconclusive: 7.94 µM [inhibitor, full curve]	
O=S(=O)(c1ccccc1Br)N1CCN(c2nc(-c3cccs3)nc3ccccc23)CC1	active: 0.562 µM	
c1ccc2c(NCC3CCCO3)nc(N3CCOCC3)nc2c1 (stereo not given)		inactive: 6.48%
COc1ccc(-c2nc(N3CCN(S(=O)(=O)c4ccccc4)CC3)c3ccccc3n2)cc1	inconclusive: 15.8 µM [inhibitor, partial curve, poor fit]	
CCCNC(=O)COC(=O)c1ccccc1OCC(=O)Nc1ccc(Br)cc1		inactive: -7.67%
O=S(=O)(c1ccc(Cl)cc1)N1CCN(c2nc(-c3ccccc3)nc3ccccc23)CC1	inconclusive: 4.47 µM [inhibitor, full curve]	
O=[N+]([O-])c1ccc(S(=O)(=O)N2CCN(c3nc(-c4cccs4)nc4ccccc34)CC2)cc1	active: 1.12 µM	
O=S(=O)(c1ccccc1Br)N1CCN(c2nc(-c3ccccc3)nc3ccccc23)CC1	inconclusive: 17.8 µM [inhibitor, partial curve]	
